# Library screening results

Mtb growth Cornell: 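Whole-cell assay for inhibitors of Mycobacterium tuberculosis growth, labelled Cornell in the record; the read-out is not stated. The concentration is filed as 10 mM, unlikely as a test dose, so the dose is not known. Higher means stronger inhibition (inferred from two other growth screens of the library). Of about 53,000 compounds tested this way, about 900 (1.7%) reached 50% or more in at least one test.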
Mtb heat-shock: 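Assay on Mycobacterium tuberculosis, filed only as a heat shock assay from Cornell; the read-out is not stated. The concentration is filed as 10 mM, unlikely as a test dose, so the dose is not known. Higher reads as stronger inhibition (inferred: compounds with an IC50 in retests scored well above the rest). Size under these conditions: about 69,000 compounds, about 930 of them at 50% or above in at least one test.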

Each number is a percent effect as filed. The record does not define 0% and 100%; most values in the screen are far below 50% and negative numbers occur (in some assays of this library far below -100). The compounds are a random part of those screened. A dash means the value is not listed here; it may have been measured.

For CC(NC(=O)NCCOc1ccc(Cl)cc1)c1nncn1C (stereo not given) the result was Mtb growth Cornell: -19.33%; Mtb heat-shock: 15.1%.
For CS(=O)(=O)N[C@@H]1CCN(Cc2cccnc2)[C@H]1Cc1cccnc1 the result was Mtb growth Cornell: -26.45%; Mtb heat-shock: -14.82%.
For O=S(=O)(C1CC1)N1CC[C@]2(C[C@H](OCC3CCOCC3)CO2)C1 the result was Mtb growth Cornell: -26.5%; Mtb heat-shock: 3.246%.
For COCC(NC(=O)NCc1sccc1C)c1ccco1 (stereo not given) the result was Mtb heat-shock: 4.641%.
For CCN1C(=O)CCC12CCCN(Cc1nccs1)C2.O=C(O)C(F)(F)F (stereo not given) the result was Mtb growth Cornell: -1.245%; Mtb heat-shock: 6.604%.
For NC(=O)C(CNC(=O)COCC(F)(F)F)Cc1ccc(F)cc1 (stereo not given) the result was Mtb growth Cornell: 11.46%; Mtb heat-shock: 17.63%.
For O=C1CCCN1Cc1nnc(SCc2ccc3c(c2)CCC3)o1 the result was Mtb growth Cornell: 37.36%; Mtb heat-shock: -7.417%.
For Cc1nc(C)n(Cc2cccc(NC3CCN(C)C3=O)c2)n1 (stereo not given) the result was Mtb growth Cornell: -3.033%; Mtb heat-shock: 5.878%.
For CCOC(=O)c1sc(NC(=O)CCCC(=O)O)c(C#N)c1C the result was Mtb growth Cornell: -12.54%; Mtb heat-shock: 8.686%.
For CC(C)(C)CN1CCCC2(CCN(C(=O)c3ccc(O)nc3)C2)C1 (stereo not given) the result was Mtb growth Cornell: 12.74%; Mtb heat-shock: -0.1715%.
For CC(=O)NCCc1cn(-c2cc(F)ccc2C)cn1 the result was Mtb growth Cornell: 0.04209%; Mtb heat-shock: -6.543%.
For [H][C@]12CC[C@]([H])(CN(c3ncccn3)C1)N(C(=O)CCOCC)C2 the result was Mtb growth Cornell: -3.577%; Mtb heat-shock: -16.58%.
For CCOC(=O)N1CCN(C(=O)c2cc(-c3ccccc3F)on2)CC1 the result was Mtb growth Cornell: -14.34%; Mtb heat-shock: 9.54%.
For COc1ncccc1CNCc1c(C)nn(C)c1N(C)C the result was Mtb growth Cornell: -66.33%; Mtb heat-shock: -1.798%.
For COc1ccc(CN2Cc3nnn(C)c3C(COCCN(C)C)C2)cc1.O=C(O)C(F)(F)F.O=C(O)C(F)(F)F (stereo not given) the result was Mtb heat-shock: -24.51%.
For O=C(c1cnc(-c2ncccn2)s1)N1CCCC1Cn1cccn1 (stereo not given) the result was Mtb growth Cornell: -19.42%; Mtb heat-shock: 13.83%.
For O=C(NCc1ccccn1)c1cncc(C2CCCN2)n1 (stereo not given) the result was Mtb growth Cornell: -9.153%; Mtb heat-shock: 2.609%.
For CC(C)N1CCOC(c2ccnc(N(C)C)n2)C1 (stereo not given) the result was Mtb growth Cornell: 50.07%; Mtb heat-shock: -2.66%.
For CCCS(=O)(=O)N1CCOCC2(CCN(c3ccccn3)C2)C1.O=C(O)C(F)(F)F (stereo not given) the result was Mtb heat-shock: -4.27%.
For CCSc1cccc(NCc2cccnc2)c1 the result was Mtb growth Cornell: 12.75%; Mtb heat-shock: -12.4%.
For CC(C)N1CCOCC2(CN(Cc3ccccn3)CCO2)C1.O=C(O)C(F)(F)F.O=C(O)C(F)(F)F.O=C(O)C(F)(F)F (stereo not given) the result was Mtb growth Cornell: -12.68%; Mtb heat-shock: -0.2652%.
For Cc1ccccc1C(=O)N1CCOC2(CNCCOC2)C1 (stereo not given) the result was Mtb heat-shock: 2.523%.
For CCOC(=O)C(C)NC(=O)N1CCN(c2nc3ccccc3n2C)CC1 (stereo not given) the result was Mtb growth Cornell: 8.272%; Mtb heat-shock: 3.801%.
For CCc1c(C)sc2ncnc(N3CC[C@@H](N4CCOCC4)[C@H](O)C3)c12 the result was Mtb growth Cornell: 31.66%; Mtb heat-shock: 11.35%.
For CC1CCCCN1c1nc2c(c(=O)[nH]1)CCN(Cc1cccnc1)C2 (stereo not given) the result was Mtb growth Cornell: 17.16%; Mtb heat-shock: -12.3%.
For Cc1nn(C)cc1-c1cncn1CCN(C)C1CCCC1.Cl the result was Mtb growth Cornell: 20.9%; Mtb heat-shock: 1.181%.
For Brc1ccc(CNCc2nnc3n2CCCCC3)s1.Cl the result was Mtb growth Cornell: -10.09%; Mtb heat-shock: 23.42%.
For Cc1nn(C2CCS(=O)(=O)C2)c(O)c1Cc1ccccc1 (stereo not given) the result was Mtb growth Cornell: 22.18%; Mtb heat-shock: 0.9806%.
For CCOCC(O)CN1CCN(C(=O)c2ccncc2)CC1 (stereo not given) the result was Mtb growth Cornell: 18.36%; Mtb heat-shock: -2.799%.
For CCc1cn[nH]c1C1CCN(C(=O)c2cccc(O)c2C)CC1 the result was Mtb heat-shock: -8.824%.
For CCCC(C)CN1CCC(n2cc(C3CCCC3)nn2)CC1 (stereo not given) the result was Mtb growth Cornell: 14.14%; Mtb heat-shock: -1.102%.
For COc1c(F)cc(-c2cn(CCn3c(C)cc(C)nc3=O)nn2)cc1Cl the result was Mtb growth Cornell: 6.968%; Mtb heat-shock: 31.23%.
For [H][C@@]12COC[C@]1(COc1ccc(C#N)cn1)CN(Cc1c(C)noc1C)C2 the result was Mtb growth Cornell: -4.083%; Mtb heat-shock: -27.51%.
For CC(C(=O)NC(N)=O)N1CCN(c2ccc(C#N)cc2F)CC1 (stereo not given) the result was Mtb growth Cornell: -18.45%; Mtb heat-shock: 2.952%.
For Cc1sc2ncnc(N3CCC(N(C)Cc4cnn(C)c4)CC3)c2c1C the result was Mtb growth Cornell: -12.66%; Mtb heat-shock: -47.27%.
For c1ccc(Cc2nnc(CN3CCc4cncnc4C3)o2)cc1 the result was Mtb heat-shock: 39.4%.
For [H][C@@]12CN(Cc3scnc3C)C[C@H](C(=O)NC3CCCC3)[C@]1([H])CCO2 the result was Mtb growth Cornell: -7.257%; Mtb heat-shock: -4.733%.
For O=c1c(NCCO)c(N2CCN(c3ccccc3)CC2)c1=O the result was Mtb growth Cornell: 28.66%; Mtb heat-shock: 12.19%.
For Cc1noc(C(C)C)c1C(=O)NCC(c1ccsc1)N(C)C (stereo not given) the result was Mtb growth Cornell: -26.79%; Mtb heat-shock: 14.13%.
For CN1CCC(Cc2noc(-c3cn(Cc4ccc(F)cc4)nn3)n2)CC1 the result was Mtb growth Cornell: 5.626%; Mtb heat-shock: -14.84%.
For CNC(=O)c1cc(C)n(-c2ccccc2)n1 the result was Mtb growth Cornell: -14.5%; Mtb heat-shock: 33.52%.

For reference, 5 entries once more:

| SMILES | Mtb growth Cornell | Mtb heat-shock |
|---|---|---|
| `Cc1nn(C)cc1-c1cncn1CCN(C)C1CCCC1.Cl` | 20.9% | 1.181% |
| `COc1c(F)cc(-c2cn(CCn3c(C)cc(C)nc3=O)nn2)cc1Cl` | 6.968% | 31.23% |
| `Cc1noc(C(C)C)c1C(=O)NCC(c1ccsc1)N(C)C` (stereo not given) | -26.79% | 14.13% |
| `COCC(NC(=O)NCc1sccc1C)c1ccco1` (stereo not given) | - | 4.641% |
| `CC(C)N1CCOCC2(CN(Cc3ccccn3)CCO2)C1.O=C(O)C(F)(F)F.O=C(O)C(F)(F)F.O=C(O)C(F)(F)F` (stereo not given) | -12.68% | -0.2652% |

From ChEMBL document CHEMBL3988442, “University of Dundee, Small-Polar-MMV Screening Library” (2021).